In all, about 340,000 compounds went through this assay and about 6,200 (1.8%) were called active. This list was built around the results that the source calls inconclusive (neither active nor inactive); the mix of calls is not that of the screen. The call rests on the fitted dose curve; in most records, active means well fitted activation curve with a large enough effect; inconclusive means small, poorly fitted or top-dose-only effect; inactive means no such curve, though single readings can be large or run the other way. A potency beside an inconclusive call is a rough fit, not a confirmed value.
Experiment: A quantitative high throughput screen for small molecules that induce DNA re-replication in SW480 colon adenocarcinoma cells. Further: nearly all actives have a fitted effect of over 55% in size.
Conditions: Hoechst DNA content imaging, 48 h; series mostly up to 46.1 µM
Procedure, shortened: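 Hoechst fluorescence of nuclei (405 nm excitation, 500-530 nm emission) measured by plate-scanning imager after 48 hr compound exposure at 37 C; re-replication scored as increased number of nuclei with elevated intensity.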
With O=C(NCc1ccccc1)c1cccc(NC(=O)c2ccco2)c1 the Potency was “inactive”.
For COc1cc(/C=N/NC(=O)c2ccc3nc[nH]c3c2)cc(OC)c1OC, the Potency was “inactive”.
With CS(=O)(=O)c1ccc(C(=O)OCc2nnc(-c3ccccc3)o2)cc1[N+](=O)[O-] the Potency was inconclusive: 4.61 µM [activator, partial curve, poor fit].
In the case of COCCn1c(N)c(C(=S)NC(=O)c2cccs2)c(=O)[nH]c1=O, the Potency is reported as inconclusive: 18.4 µM [activator, partial curve, poor fit].
In the case of COc1cc(C(=O)NCCCNc2nc3c(C)cc(C)cc3cc2C#N)cc(OC)c1OC, the Potency is reported as inconclusive: 23.1 µM [activator, partial curve, poor fit].
For COc1ccc(C(=O)NCCS(=O)(=O)NCc2ccc3c(c2)OCO3)cc1, the Potency was “inactive”.
With CC(OC(=O)CC1CCCC1)C(=O)Nc1ccc(Cl)cn1 (centres undefined) the Potency was “inactive”.
In the case of COc1ccc(C2=Nn3c(nnc3-c3ccccc3OC)SC2)cc1OC1CCOC1 (centres undefined), the Potency is reported as active: 1.03 µM.
With Cc1onc(-c2ccccc2Cl)c1C(=O)NNC(=O)c1nn(C)cc1Cl the Potency was inconclusive: 0.058 µM [activator, full curve, poor fit].
In the case of Fc1ccccc1C1c2cccn2CCN1C(=S)Nc1ccc(Br)cc1 (centres undefined), the Potency is reported as inconclusive: 29.1 µM [activator, single point].
In the case of CCCOc1ccccc1-c1nc2n[nH]nc2c(=O)[nH]1, the Potency is reported as inconclusive: 0.1 µM [activator, full curve, poor fit].
In the case of CC(C)Cc1nc(NCCN2CCOCC2)c(C#N)c2c1COC(C)(C)C2, the Potency is reported as “inactive”.
In the case of O=c1c2ccccc2nc(SCc2nnc(-c3ccccc3Br)o2)n1Cc1ccco1, the Potency is reported as inconclusive: 32.6 µM [activator, partial curve, poor fit].
In the case of Cc1nnc(SCCN2CCOCC2)n1C, the Potency is reported as inconclusive: 29.1 µM [activator, single point].
In the case of O=C(Cc1cccs1)Nc1nnc(SCC(=O)N2CCCCC2)s1, the Potency is reported as “inactive”.
In the case of O=C1c2cccc3c([N+](=O)[O-])ccc(c23)C(=O)N1c1nccs1, the Potency is reported as active: 7.31 µM.
With CCCN1C(=O)/C(=c2\sc3nc(=O)c(Cc4ccc(C)cc4)nn3c2=O)c2ccccc21 the Potency was “inactive”.
For COc1ccccc1CNC(=O)COC(=O)CSc1ccc(C)c(C)c1, the Potency was inconclusive: 2.06 µM [activator, full curve, poor fit].
In the case of O=C(CCN1C(=O)/C(=C/c2ccccc2F)SC1=S)NCCCN1CCOCC1, the Potency is reported as “inactive”.
In the case of COc1ccccc1N1CCN(C(=O)c2ccc([N+](=O)[O-])s2)CC1, the Potency is reported as inconclusive: 29.1 µM [activator, single point].
In the case of Cc1cc(/C=C2/NC(=O)N(Cc3ccccc3F)C2=O)c(C)n1C(C)C, the Potency is reported as inconclusive: 0.82 µM [activator, full curve, poor fit].
In the case of O=C(COc1ccc(Cl)cc1)NCc1nnc(SCC(=O)Nc2ccc(F)cc2F)o1, the Potency is reported as inconclusive: 6.51 µM [activator, single point].
With COCCn1c(C)cc(C2=NNC(=Nc3ccccc3F)SC2)c1C the Potency was “inactive”.
For CC(=O)N1N=C(c2ccc(C(C)(C)C)cc2)OC1(C)C, the Potency was inconclusive: 4.61 µM [activator, single point].
In the case of CC1CCN(C(=O)COC(=O)CSc2ccc(C(N)=O)cc2[N+](=O)[O-])CC1, the Potency is reported as “inactive”.
With O=C(OCC(=O)N1CCCC1)c1cc(Cl)ccc1Cl the Potency was inconclusive: 18.4 µM [activator, single point].
In the case of CC(=O)c1c(C)[nH]c(C(=O)CSc2nnc(-c3ccccc3)n2Cc2ccc3c(c2)OCO3)c1C, the Potency is reported as inconclusive: 18.4 µM [activator, single point].
With Cc1ccccc1C=Nc1ccccc1C(N)=O the Potency was active: 4.11 µM.
In the case of CCOC(=O)c1c(NC(=O)c2ccco2)n(C2CCCCC2)c2nc3ccccc3nc12, the Potency is reported as “inactive”.
For COc1ccc(/C=N/NS(=O)(=O)c2ccccc2)cc1OS(=O)(=O)c1ccc(C)cc1, the Potency was inconclusive: 23.1 µM [activator, single point].
For CC(=O)OCC1=C(C(=O)O)N2C(=O)C(NC(=O)CC(C)c3ccccc3)C2SC1 (centres undefined), the Potency was inconclusive: 25.9 µM [activator, single point].
With Cc1ccc(/C=C2\C(=O)ON=C2c2ccccc2)o1 the Potency was “inactive”.
In the case of COc1cc(OC)cc(-c2c(C#Cc3ccsc3)c3cc(-c4ccc(OC)nc4)ccc3n2C)c1, the Potency is reported as inconclusive: 32.6 µM [activator, partial curve, poor fit].
With CCOC(=O)C1=C(CN2CCSCC2)NC(=O)NC1c1ccc2c(c1)OCO2 (centres undefined) the Potency was “inactive”.
With Cc1ccc(CNC(=O)Cc2ccc(Br)cc2)cc1 the Potency was inconclusive: 29.1 µM [activator, single point].
With Cc1nccn1CCCNCc1c(C(=O)N2CCCCCCC2)nc2ccc(Cl)cn12 the Potency was inconclusive: 7.31 µM [activator, partial curve, poor fit].
For COC(=O)C(C)n1cnc2c(nnn2-c2cccc(OC)c2)c1=O (centres undefined), the Potency was inconclusive: 29.1 µM [activator, single point].
In the case of CC(c1ccccc1)C1CC(=O)N(c2cc(Cl)ccn2)C1=O (centres undefined), the Potency is reported as inconclusive: 29.1 µM [activator, single point].
In the case of CC(=O)Nc1cc(N=Cc2ccc(O)cc2O)c(Cl)cc1Cl, the Potency is reported as inconclusive: 18.4 µM [activator, single point].
With Cc1ccc(C(=O)Nc2ccc(N3CCN(C(=O)c4ccco4)CC3)cc2)c(Cl)c1 the Potency was “inactive”.
With CCN1CCN=C1Nc1ccccc1 the Potency was “inactive”.
With COc1ccnc(N=CNOCc2cccc(C(F)(F)F)c2)c1C#N the Potency was inconclusive: 29.1 µM [activator, single point].
For CCOC(=O)/C=C/C(=O)N1CCN(C(=O)/C=C/C(=O)OCC)CC1, the Potency was inconclusive: 18.4 µM [activator, single point].
In the case of Cc1c(C(=O)C(=O)N2c3ccccc3CC2C)c2ccccc2n1C (centres undefined), the Potency is reported as inconclusive: 18.4 µM [activator, single point].
For CNc1cc(C(F)(F)F)nc(-c2ccccn2)n1, the Potency was “inactive”.
With Clc1cccc(Nc2ncnc3c2cnn3-c2ccccc2)c1 the Potency was “inactive”.
In the case of N#CCC(=O)Nc1ccc(C(=O)NCCC(c2ccccc2)c2ccccc2)cc1, the Potency is reported as “inactive”.
In the case of Cc1ccc(C)c(C(C)NC(=S)NCc2ccc(F)cc2)c1 (centres undefined), the Potency is reported as inconclusive: 23.1 µM [activator, single point].
With O=C(CSc1nnc(-c2ccco2)o1)NC(=O)C1COc2ccccc2O1 (centres undefined) the Potency was “inactive”.
With COc1ccc(CSCCN)cc1Cl the Potency was inconclusive: 29.1 µM [activator, single point].
For O=C(NCCCn1ccnc1)c1ccccc1F, the Potency was inconclusive: 1.84 µM [activator, partial curve, poor fit].
With O=C(COC(=O)c1ccc(S(=O)(=O)N2CCCCC2)cc1)NCc1ccccc1 the Potency was inconclusive: 10.3 µM [activator, partial curve].
In the case of CC(=O)Nc1ccc(N/C=C(\C=O)c2nc3ccccc3o2)cc1, the Potency is reported as inconclusive: 16.4 µM [activator, partial curve, poor fit].
For COc1cccc(/C=N/NC(=O)c2ccc([N+](=O)[O-])cc2Cl)c1O, the Potency was inconclusive: 5.17 µM [activator, single point].
For CN(C(=O)CSc1nnc(-c2ccc3c(c2)OCO3)o1)C1CCS(=O)(=O)C1 (centres undefined), the Potency was inconclusive: 29.1 µM [activator, single point].
For COc1ccc(C(C(=O)NC2CCCCC2)N(C(=O)c2ccccn2)c2cccnc2)cc1 (centres undefined), the Potency was inconclusive: 16.4 µM [activator, partial curve, poor fit].
With Cc1cnc(NC(=O)c2ccc(OCC3CCCO3)cc2)s1 (centres undefined) the Potency was “inactive”.
In the case of Cc1ccc2nc(N)[nH]c(=O)c2c1Sc1ccncc1, the Potency is reported as inconclusive: 23.7 µM [activator, partial curve, poor fit].
With COc1ccc(/C=N/NC(=O)c2ccn[nH]2)cc1COc1ccc([N+](=O)[O-])c(C)c1 the Potency was inconclusive: 29.1 µM [activator, single point].
For COc1ccc(NC(=O)Cc2coc3cc(C)c(C(C)C)cc23)cc1S(=O)(=O)N1CCOCC1, the Potency was inconclusive: 29.1 µM [activator, single point].
In the case of CCOc1ccc(/C=N/Nc2cc(N3CCOCC3)nc(C)n2)c(O)c1, the Potency is reported as inconclusive: 2.06 µM [activator, partial curve, poor fit].
For CCN(c1ccccc1)S(=O)(=O)c1cc(C(=O)NCC(c2ccco2)N2CCCCC2)ccc1C (centres undefined), the Potency was inconclusive: 22.4 µM [activator, single point].
In the case of COc1cccc(NC(=S)NCCc2ccccn2)c1, the Potency is reported as inconclusive: 29.1 µM [activator, single point].
In the case of CCCCN(CCCNC(=O)C1CCN(S(=O)(=O)N2CCOCC2)CC1)c1ccccc1, the Potency is reported as “inactive”.
With COc1ccccc1OCC(=O)N/N=C/C=C/c1ccc([N+](=O)[O-])o1 the Potency was inconclusive: 4.11 µM [activator, full curve, poor fit].
In the case of FC(F)Sc1ccc(NC(=S)NC2CCCCC2)cc1, the Potency is reported as inconclusive: 23.1 µM [activator, single point].
For O=C(NCC(c1cccs1)N1CCOCC1)c1ccccc1NS(=O)(=O)c1ccc(Br)cc1 (centres undefined), the Potency was inconclusive: 18.4 µM [activator, single point].
For COC(=O)c1cc(S(=O)(=O)N2CCC(c3cc(OC)ccc3OC)C2)c[nH]1 (centres undefined), the Potency was inconclusive: 0.731 µM [activator, partial curve, poor fit].
With Cc1nc(N)sc1-c1csc(Nc2ccccc2)n1 the Potency was inconclusive: 5.62 µM [activator, single point].

— PubChem BioAssay AID624297 (National Center for Advancing Translational Sciences (NCATS), 2012)
Potency means the concentration at half of the fitted maximal effect.
